The target in one assay is T1, CBX4-YFP (human) (UniProt O00257).
T1 sequence: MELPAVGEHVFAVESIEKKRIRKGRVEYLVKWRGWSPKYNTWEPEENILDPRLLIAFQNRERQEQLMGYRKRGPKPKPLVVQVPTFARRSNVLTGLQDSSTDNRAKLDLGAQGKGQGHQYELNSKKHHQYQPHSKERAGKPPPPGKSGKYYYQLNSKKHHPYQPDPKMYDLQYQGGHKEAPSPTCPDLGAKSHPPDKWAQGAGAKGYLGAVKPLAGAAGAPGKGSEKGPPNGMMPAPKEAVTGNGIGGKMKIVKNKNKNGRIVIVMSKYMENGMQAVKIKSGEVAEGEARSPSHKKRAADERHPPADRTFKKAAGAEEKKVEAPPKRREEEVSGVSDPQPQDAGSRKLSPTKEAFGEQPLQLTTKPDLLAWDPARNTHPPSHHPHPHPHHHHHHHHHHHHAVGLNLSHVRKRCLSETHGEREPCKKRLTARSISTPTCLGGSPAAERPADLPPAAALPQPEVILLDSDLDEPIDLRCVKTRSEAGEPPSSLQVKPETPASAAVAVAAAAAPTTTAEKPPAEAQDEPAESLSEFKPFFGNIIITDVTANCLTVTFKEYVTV
Kind of assay: pull-down; GFP-Trap co-pulldown: YFP-tagged bait and HA-tagged prey co-transfected in HEK 293FT cells; lysate (150 mM NaCl, 1% NP-40, 0.5% Triton X-100) with GFP-Trap resin overnight at 4°C; washes with 300 mM NaCl; Western blot. Background: Immunoblotting shows a protein as a band on a membrane.

Assay [1] concerns the target T2, CBX4 (endogenous, U2OS) (human (endogenous in U2OS)) (UniProt O00257).
T2 sequence: T1 sequence
The experiment in a line: proximity ligation; Duolink In Situ Red PLA in U2OS cells transfected with CMV-SALL1-2xHA (pcDNA3 as control); mouse anti-SALL1 and rabbit anti-CBX4 primary antibodies; spots counted per cell.

These are yes or no findings as the source states them, for the method shown. In cells and extracts the contact can be indirect. Some binding calls cover weakened binding; strength is not graded here. For some assays here: Where a sequence is shown, tags or fusion partners need not be part of it.

B1: SALL1-2xHA (protein, UniProt Q9NSC2 1-1324)
chain: MSRRKQAKPQHFQSDPEVASLPRRDGDTEKGQPSRPTKSKDAHVCGRCCAEFFELSDLLLHKKNCTKNQLVLIVNENPASPPETFSPSPPPDNPDEQMNDTVNKTDQVDCSDLSEHNGLDREESMEVEAPVANKSGSGTSSGSHSSTAPSSSSSSSSSSGGGGSSSTGTSAITTSLPQLGDLTTLGNFSVINSNVIIENLQSTKVAVAQFSQEARCGGASGGKLAVPALMEQLLALQQQQIHQLQLIEQIRHQILLLASQNADLPTSSSPSQGTLRTSANPLSTLSSHLSQQLAAAAGLAQSLASQSASISGVKQLPPIQLPQSSSGNTIIPSNSGSSPNMNILAAAVTTPSSEKVASSAGASHVSNPAVSSSSSPAFAISSLLSPASNPLLPQQASANSVFPSPLPNIGTTAEDLNSLSALAQQRKSKPPNVTAFEAKSTSDEAFFKHKCRFCAKVFGSDSALQIHLRSHTGERPFKCNICGNRFSTKGNLKVHFQRHKEKYPHIQMNPYPVPEHLDNIPTSTGIPYGMSIPPEKPVTSWLDTKPVLPTLTTSVGLPLPPTLPSLIPFIKTEEPAPIPISHSATSPPGSVKSDSGGPESATRNLGGLPEEAEGSTLPPSGGKSEESGMVTNSVPTASSSVLSSPAADCGPAGSATTFTNPLLPLMSEQFKAKFPFGGLLDSAQASETSKLQQLVENIDKKATDPNECIICHRVLSCQSALKMHYRTHTGERPFKCKICGRAFTTKGNLKTHYSVHRAMPPLRVQHSCPICQKKFTNAVVLQQHIRMHMGGQIPNTPVPDSYSESMESDTGSFDEKNFDDLDNFSDENMEDCPEGSIPDTPKSADASQDSLSSSPLPLEMSSIAALENQMKMINAGLAEQLQASLKSVENGSIEGDVLTNDSSSVGGDMESQSAGSPAISESTSSMQALSPSNSTQEFHKSPSIEEKPQRAVPSEFANGLSPTPVNGGALDLTSSHAEKIIKEDSLGILFPFRDRGKFKNTACDICGKTFACQSALDIHYRSHTKERPFICTVCNRGFSTKGNLKQHMLTHQMRDLPSQLFEPSSNLGPNQNSAVIPANSLSSLIKTEVNGFVHVSPQDSKDTPTSHVPSGPLSSSATSPVLLPALPRRTPKQHYCNTCGKTFSSSSALQIHERTHTGEKPFACTICGRAFTTKGNLKVHMGTHMWNSTPARRGRRLSVDGPMTFLGGNPVKFPEMFQKDLAARSGSGDPSSFWNQYAAALSNGLAMKANEISVIQNGGIPPIPGSLGSGNSSPVSGLTGNLERLQNSEPNAPLAGLEKMASSENGTNFRFTRFVEDSKEIVTS
Regarding B1, the binding result with CBX4-YFP (human) is “binds”.

B2: SALL1-2xHA (in U2OS cells) (protein, UniProt Q9NSC2 1-1324)
chain: B1 chain
In the case of B2, the binding entry in assay [1] is reported as “binds”.

For the origin of these results see publication PMC8490708.
